Test results from patent US20260091050A1, “ADVANTAGEOUS ANTI-HCV COMBINATION THERAPY” (Atea Pharmaceuticals, Inc., priority 2021, published 2026).

Assays:
[1] = Accelerated stability (40 ± 2° C./75 ± 5% RH) of Compound 1-A over 6 months; type: physicochemical; settings: 0 month
Method: (§1) Three conditions were tested: accelerated stability (40±2° C./[…]) over a 6-month time period, ambient stability (25±2° C./[…]) over a 9-month period, and stability under refrigerator conditions (5±3° C.) over a 9-month time period. The results for accelerated stability, ambient stability, and refrigerator conditions are shown in Table 23, Table 24, and Table 25, respectively.

[2] = Ambient stability (25 ± 2° C./60 ± 5% RH) of Compound 1-A over 9 months; type: physicochemical; settings: 0 month
Method: as §1

CNc1nc(N)nc2c1ncn2[C@@H]1O[C@H](CO[P@@](=O)(N[C@@H](C)C(=O)OC(C)C)Oc2ccccc2)[C@@H](O)[C@@]1(C)F [Compound 1-A, isopropyl ((S)-(((2R,3R,4R,5R)-5-(2-amino-6-(methylamino)-9H-purin-9-yl)-4-fluoro-3-hydroxy-4-methyltetrahydrofuran-2-yl)methoxy) (phenoxy)phosphoryl)-L-alaninate hemisulfate]
<1 cfu/g: Microbial Testing Mold and Yeast [1] | Microbial Testing TAMC [1] | Microbial Testing Mold and Yeast [2] | Microbial Testing TAMC [2]
